PubChem BioAssay AID493014 (National Center for Advancing Translational Sciences (NCATS), 2011)
Screen size: about 340,000 compounds; about 170 (0.05%) were called active. The inconclusive results got no clear call from the source; some entries with a clear call stand among them for comparison. The call rests on the fitted dose curve; in most records, active means well fitted inhibition curve with a large enough effect in the signal ratio, with a control signal flat (not every such curve was filed as active); inconclusive means small, poorly fitted or top-dose-only effect, or effect the other way, or a change in a side signal; inactive means flat fitted curve, though single readings scatter; the % refers to the signal ratio. Potencies beside an inconclusive call are fits to weak or partial responses and may not hold up.

Assay: qHTS Assay to Find Inhibitors of Chronic Active B-Cell Receptor Signaling;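 on activity change, negative = inhibition: plate controls were basal doxycycline-induced cells for no effect and cells given 10 µM MG132 for full effect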
Details: ABC-DLBCL IkBa-CBG/CBR reporter, luminescence ratio (green luciferase fused to IkBa over red control in TMD8 lymphoma cells), 4 h; activity change, negative = inhibition: at 46.1 µM (top of the series) unless noted
Procedure, shortened: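 TMD8 ABC-DLBCL cells carrying doxycycline-inducible green luciferase fused to IkappaBalpha plus unfused red luciferase were exposed to compounds (up to 46 uM) for 4 hrs at 37C. Activity came from the overlap-corrected green/red luminescence ratio.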
Potency means the concentration at half of the fitted maximal effect.

Compound	Potency	activity change, negative = inhibition
Nc1c2c(nn1-c1ccccc1)CCC2	inconclusive: 25.1 µM [falling, partial curve]	–
NC(=O)C1CCN(C(=O)Cc2ccc(-c3ccccc3)cc2)CC1	–	inconclusive: 7.91%
O=C1Oc2ccccc2C(=O)/C1=C\N1CCN(c2ccccc2)CC1	inconclusive: 6.31 µM [falling, partial curve]	–
Cc1ccc(-n2nnnc2SCC(=O)Nc2ccccc2-c2ccccc2)cc1C	–	inconclusive: 2.34%
Cc1ccc(OCC(=O)c2ccc(Cl)s2)c([N+](=O)[O-])n1	–	inactive: 9.54%
Cc1c(NC(=O)C(=O)/C=C(/O)c2ccccc2)c(=O)n(-c2ccccc2)n1C	–	inconclusive: 3.42%
C/C=C/c1ccc(OCC(=O)O)c(OC)c1	–	inconclusive: 12.9%
O=C(N/N=C/c1c[nH]c2ccccc12)c1ccn(Cc2ccc(Cl)cc2Cl)n1	inconclusive: 11.2 µM [falling, single point]	–
COCCCNC(=O)c1cc(Nc2ccc(OC)cc2OC)nc2ccccc12	–	inconclusive: -0.261%
CC(=O)Nc1ccc(NC(=O)C2CCN(c3ccc(C(F)(F)F)cn3)CC2)cc1	–	inactive: -5.34%
O=C(O)c1cccc(-c2ccc(/C=N/NC(=O)c3cccnc3)o2)c1	inconclusive: 16.4 µM [falling, partial curve]	–
CCC(=O)N1N=C(c2ccc(NS(=O)(=O)c3ccccc3)cc2)CC1c1ccco1 (centres undefined)	–	inconclusive: 6.35%
CC(=O)NC(C)CCc1ccccc1 (centres undefined)	–	inactive: 1.9%
N#CC(C(=O)c1ccccc1Cl)=C1SCCCS1	–	inconclusive: 21.8%
O=C(/C=C/c1cccc([N+](=O)[O-])c1)Nc1cccc(NC(=O)c2ccco2)c1	inconclusive: 2.31 µM [falling, full curve]	–
CCC(=O)Nc1nnc(-c2ccc(Cl)s2)o1	inconclusive: 15.8 µM [falling, single point]	–
COC(=O)Nc1ncc(CN2CCC(c3ccccc3)CC2)s1	–	inactive: -10.7%
COc1ccccc1N1CCN(C(=O)CCC(=O)Nc2nnc(CC(C)C)s2)CC1	–	inactive: 1.07%
CC1=C(C)CC(C(=O)NCc2ccc3c(c2)OCO3)C(C(=O)O)C1 (centres undefined)	–	inconclusive: 10.5%
CCn1c(CCCOc2ccc(Cl)cc2Cl)n[nH]c1=S	–	inconclusive: -0.468%
CCOC(=O)c1c(-c2ccccc2)cn2ccccc12	–	inconclusive: 20.2%

Compound	Potency	activity change, negative = inhibition
CCn1c(=O)cc(OCC(=O)NCc2ccc(C)o2)c2ccccc21	–	inconclusive: 1.79%
COc1cccc(CN(C)C(=O)c2ccc3c(=O)n4c(nc3c2)CCC4)c1	–	inconclusive: -7.75%
O=C(O)c1cccc2sc3cc(Cl)ccc3c(=O)c12	–	inconclusive: 12.8%
O=C(OCc1nc2scc(-c3ccccc3)c2c(=O)[nH]1)c1cc([N+](=O)[O-])ccc1Cl	–	inconclusive: -13.1%
COc1cccc(CNn2c(-c3cccc(C)c3)nc3ccccc3c2=O)c1O	–	inactive: -0.513%
C=C(C)c1ccc(C(C)(C)NC(=O)N(Cc2ccccc2)Cc2ccco2)cc1	–	inconclusive: 5.12%
COc1cccc2cc(C(C)N(CCCN3CCOCC3)C(=S)Nc3ccc(C)c(C)c3)oc12 (centres undefined)	inconclusive: 22.4 µM [falling, partial curve, poor fit]	–
O=C(NCCN1CCOCC1)c1c(O)nc2sccn2c1=O	–	inactive: -5.27%
Cc1cccc2cc(C#N)c(NCCNC(=O)COc3ccccc3)nc12	–	inactive: 8.3%
CCOc1cccc2cc(C(=O)N3CCc4ccccc4C3)c(=O)oc12	–	inconclusive: -16.7%
CC(C)N(C(=O)C1CC(=O)OC12CCCCC2)C(C)C (centres undefined)	–	inconclusive: 1.98%
COc1cc(CN2CCNC(=O)C2CC(=O)NCc2csc(C(C)C)n2)cc(OC)c1 (centres undefined)	–	inconclusive: -17.2%
CCOC(=O)Cc1csc(NC(=O)c2sc3nc4ccc(C)cc4cc3c2N)n1	inconclusive: 35.5 µM [falling, partial curve, poor fit]	–
O=C(Cn1c2ccccc2c(=O)c2cc([N+](=O)[O-])ccc21)Nc1ccccc1Cl	–	inconclusive: 14.1%
Cc1csc(NC(=O)CSc2nc3sc(C)c(C)c3c(=O)[nH]2)n1	–	inconclusive: -24%
O=C(CSc1ccc2nnc(-c3cccnc3)n2n1)Nc1ccc(F)cc1	–	inconclusive: -17.9%
CSc1ccc(-c2nc(CSCC(=O)NCCCN3CCOCC3)c(C)o2)cc1	inconclusive: 7.31 µM [rising, partial curve]	–
Cc1ccc(NC2=C/C(=N\S(=O)(=O)c3cccs3)c3ccccc3C2=O)c(C)c1	–	inconclusive: 10.8%
O=C(COc1ccc(Cl)cc1Cl)NCC1(N2CCOCC2)CCCCC1	–	inconclusive: 3.04%
CCCOc1ccc(C2=NNC(c3cccs3)=Nc3ccc(OC)cc32)cc1	inconclusive: 29.1 µM [falling, single point]	–
Fc1ccc(CNc2nc3ccccc3n3nnnc23)cc1	–	inconclusive: 1.77%

Compound	Potency	activity change, negative = inhibition
CC(C)c1ccc(/C=C2\SC(=S)N(CCC(=O)NCCCn3ccnc3)C2=O)cc1	inconclusive: 11.2 µM [falling, partial curve]	–
COc1cccc(C(=O)NNC(=O)C(=O)Nc2cccc3ccccc23)c1	inconclusive: 20 µM [falling, partial curve, poor fit]	–
O=C(Nc1ccc(N2CCCC2)cc1)c1cccc(-c2cc3ccccc3oc2=O)c1	–	inactive: -12.1%
O=C(NNC1=C(C(=O)C(F)(F)F)CCC1)c1cccc(O)c1	inconclusive: 25.9 µM [rising, single point]	–
N#C/C(=N\Nc1ccc(Cl)cc1)C(=N)N1CCCCC1	inconclusive: 14.1 µM [falling, single point]	–
COc1ccccc1NC(=O)CSc1c2c(nc3ccccc13)CCC2	inconclusive: 25.9 µM [falling, single point]	–
Cc1nn(-c2ccccc2)c2sc(C(=O)N(CC(=O)NC(C)(C)C)Cc3ccco3)cc12	–	inconclusive: 12.1%
COc1ccc(C(=O)Nc2ccc3c(c2)OCCO3)cc1Br	inconclusive: 20 µM [falling, partial curve]	–
COc1ccc(S(=O)(=O)Cc2ccc(C(=O)NC3CCCCCC3)o2)cc1	–	inactive: -21.9%
O=C(Nc1ccccc1O)c1cccc(NC(=O)c2ccco2)c1	inconclusive: 22.4 µM [falling, single point]	–
O=C(N/N=C/C=C/c1ccccc1)c1cnccn1	inconclusive: 20.6 µM [falling, partial curve]	–
O=C(Nn1c(SCc2cccc([N+](=O)[O-])c2)nc2ccccc2c1=O)c1ccccc1	–	inconclusive: -8.85%
COc1cccc(C(=O)Nc2cccc(-c3ccc4nncn4n3)c2)c1OC	inconclusive: 15.8 µM [falling, partial curve, poor fit]	–
CC(=O)c1cccc(Nc2nc(-c3cccnc3)cs2)c1	inconclusive: 22.4 µM [falling, single point]	–
Cc1ccc(Nc2nc3ccccc3s2)c(C)c1	–	inconclusive: 0.743%
COc1cccc(NC(=S)N/N=C2\CC3CCC2(C)C3(C)C)c1 (centres undefined)	–	inactive: 10.9%
CCc1ccc(C2CC(c3ccccc3)n3ncnc3N2)cc1 (centres undefined)	–	inconclusive: -6.38%
COc1ccc(Cn2c(-c3ccco3)nc3oc4ccccc4c(=O)c3c2=O)cc1	–	inactive: 10.3%
O=[N+]([O-])c1ccc(NCCOc2ccccc2Cl)nc1	–	inconclusive: 8.59%
COc1ccc(CCNC(=O)c2ccc(-c3ccc([N+](=O)[O-])cc3)o2)cc1OC	–	inconclusive: 5.84%
O=C(COC(=O)c1cccnc1Cl)NCc1ccc(F)cc1	–	inconclusive: 8%

Ordered by SMILES length (falling): 15 of the compounds above.
Compound	Potency	activity change, negative = inhibition
Cc1nn(-c2ccccc2)c2sc(C(=O)N(CC(=O)NC(C)(C)C)Cc3ccco3)cc12	–	inconclusive: 12.1%
O=C(Nn1c(SCc2cccc([N+](=O)[O-])c2)nc2ccccc2c1=O)c1ccccc1	–	inconclusive: -8.85%
COc1ccc(CCNC(=O)c2ccc(-c3ccc([N+](=O)[O-])cc3)o2)cc1OC	–	inconclusive: 5.84%
CC(C)c1ccc(/C=C2\SC(=S)N(CCC(=O)NCCCn3ccnc3)C2=O)cc1	inconclusive: 11.2 µM [falling, partial curve]	–
O=C(Nc1ccc(N2CCCC2)cc1)c1cccc(-c2cc3ccccc3oc2=O)c1	–	inactive: -12.1%
COc1ccc(Cn2c(-c3ccco3)nc3oc4ccccc4c(=O)c3c2=O)cc1	–	inactive: 10.3%
COc1ccc(S(=O)(=O)Cc2ccc(C(=O)NC3CCCCCC3)o2)cc1	–	inactive: -21.9%
COc1cccc(C(=O)Nc2cccc(-c3ccc4nncn4n3)c2)c1OC	inconclusive: 15.8 µM [falling, partial curve, poor fit]	–
O=C(NNC1=C(C(=O)C(F)(F)F)CCC1)c1cccc(O)c1	inconclusive: 25.9 µM [rising, single point]	–
COc1ccccc1NC(=O)CSc1c2c(nc3ccccc13)CCC2	inconclusive: 25.9 µM [falling, single point]	–
O=C(Nc1ccccc1O)c1cccc(NC(=O)c2ccco2)c1	inconclusive: 22.4 µM [falling, single point]	–
N#C/C(=N\Nc1ccc(Cl)cc1)C(=N)N1CCCCC1	inconclusive: 14.1 µM [falling, single point]	–
CCc1ccc(C2CC(c3ccccc3)n3ncnc3N2)cc1 (centres undefined)	–	inconclusive: -6.38%
O=C(N/N=C/C=C/c1ccccc1)c1cnccn1	inconclusive: 20.6 µM [falling, partial curve]	–
Cc1ccc(Nc2nc3ccccc3s2)c(C)c1	–	inconclusive: 0.743%

(more compounds)

Compound	Potency	activity change, negative = inhibition
C=CCc1cccc(CNc2ccc(Br)cc2)c1O	inconclusive: 14.1 µM [rising, partial curve]	–
CCOc1ccc(CCNC(=O)c2cccc(S(=O)(=O)N3CCCC3)c2)cc1OCC	–	inconclusive: 14.5%
COc1ccc(Nc2c(C)cccc2C)cc1	–	inactive: -12.6%
CC(=O)NCCN=C(C)c1sc2ccccc2c1O	–	inactive: 0.133%
COc1ccc(C)c2sc(NC(=O)C3=COCCO3)nc12	inconclusive: 29.1 µM [falling, single point]	–
COc1c(NC(C)=O)c2ccccc2c2ccccc12	–	inconclusive: 16.3%
CC(=O)c1ccc(NC(=O)Cc2ccsc2)cc1	–	inconclusive: -2.61%
CC(C)(C)Cc1nnc(NS(=O)(=O)Cc2ccccc2)s1	–	inconclusive: -5.62%
O=C(/C=C/c1cccc(Cl)c1)Nc1ncccn1	inconclusive: 16.4 µM [falling, partial curve]	–
Cc1cc(Cl)ccc1NC(=S)N1CCN(Cc2ccccc2)CC1	–	inconclusive: -0.523%
Cc1ccc(C)c2c1c1ccccc1n2C	–	inactive: 1.15%
Cc1ccc(OCC(=O)Oc2ccc(C(C)C)cc2)cc1	–	inconclusive: -0.674%
CC(NC(=O)COc1ccc(/C=N/NS(=O)(=O)c2ccccc2)cc1)c1ccccc1 (centres undefined)	–	inactive: -0.563%
Cc1cccc(NC(=S)NCC2CCCO2)c1 (centres undefined)	–	inconclusive: 6.81%
CC(=O)c1ccc(NC(=O)C(C)NCc2ccccc2Cl)cc1 (centres undefined)	–	inactive: -11.3%
COc1cc(C)ccc1OCCOc1cc(C)ccc1Cl	–	inconclusive: 13.5%
COc1ccc(OCC(=O)Nc2ccc3c(c2)nc(CCN2CCOCC2)n3C)cc1	–	inconclusive: -0.031%
Cc1cccn2c(=O)c3cc(C(=O)NCC4CCCO4)c(=N)n(CCN4CCOCC4)c3nc12 (centres undefined)	–	inactive: 19.3%
O=C(N/N=C/c1cccc2ccccc12)c1ccncc1	–	inactive: -5.32%
Cc1ccc(NC(=O)CC2SC3=NCCCN3C2=O)c(C)c1 (centres undefined)	–	inactive: -27.2%
CC(C)(C)Cc1nnc(NC(=O)CSc2ccccc2)s1	–	inconclusive: -17.6%
